# Primary screen of a compound library

The chains behind the UniProt entries cited, without tags or fusion partners.
UniProt P9WPC5, whole entry: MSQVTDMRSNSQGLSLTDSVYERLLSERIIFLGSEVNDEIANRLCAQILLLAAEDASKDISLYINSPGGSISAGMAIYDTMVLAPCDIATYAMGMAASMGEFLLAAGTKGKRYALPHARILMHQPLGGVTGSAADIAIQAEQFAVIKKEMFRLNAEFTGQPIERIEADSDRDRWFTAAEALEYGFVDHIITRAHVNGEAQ
UniProt P9WPC3, whole entry partner: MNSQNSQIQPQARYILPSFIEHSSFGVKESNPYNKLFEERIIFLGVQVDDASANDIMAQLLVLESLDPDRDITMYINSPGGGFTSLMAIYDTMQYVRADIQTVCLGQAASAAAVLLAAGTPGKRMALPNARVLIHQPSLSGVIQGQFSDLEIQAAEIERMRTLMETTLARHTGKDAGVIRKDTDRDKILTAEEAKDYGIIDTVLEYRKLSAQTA

Measurements from “University of Dundee, Small-Polar-MMV Screening Library” (2021), ChEMBL document CHEMBL3988442.

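ClpP1P2, Mycobacterium tuberculosis (UniProt P9WPC5 and UniProt P9WPC3). Protease assay of ClpP1P2, read by the AMC dye that it sets free. Tested at 50 µM. Higher reads as stronger inhibition, judged from the few compounds that gave an IC50. Most other retested compounds had strongly negative values. About 69,000 compounds were tested under these conditions; 0.015% (about 10) showed 50% or more at least once.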

Values are the deposited “Percent Effect”, in %. How 0% and 100% were set is not recorded. Most values in the screen are low, and negative values occur. The compounds are a random part of those screened.

| Compound | Percent Effect |
|---|---|
| `CC(C)Cc1ccc(C(=O)Cn2cnnc2[S+](C)[O-])cc1` (configuration not stated) | 1.209% |
| `CC(C)Nc1cc(N2CCC(n3cc(C4CC4)nn3)CC2)ncn1` | -5.572% |
| `O=C1CC(NS(=O)(=O)N2CCOCC2)CN1Cc1ccccc1` (configuration not stated) | -5.56% |
| `CC(=O)N1CCC2(CC1)CNc1ccc(F)cc12` | -0.01265% |
| `Cc1ccc2[nH]c(=O)cc(C(=O)NCCCn3nccc3C3CC3)c2c1` | -15.06% |
| `N#Cc1cccnc1N1CCC(C2CCCCCN2C(=O)C2CC2)CC1` (configuration not stated) | -184.5% |
| `CSCCC(C)NC(=O)c1cccc(-c2n[nH]c(C)n2)c1` (configuration not stated) | 1.24% |
| `Cc1nnc(NC(=O)NCc2ccc(F)cc2)s1` | -9.089% |
| `CC(C)NC(=O)CCNC(=O)c1cc(Br)cn1C(C)C` | -18.61% |
| `N#Cc1ccc(S(=O)(=O)NC(=O)COc2ccc3c(c2)CCC3)cc1` | -12.12% |
| `Cc1n[nH]c(C)c1NC(=O)CN1CCOC(Cn2cccn2)C1` (configuration not stated) | -0.7152% |
| `CCS(=O)(=O)N[C@H]1CN(CC(C)(C)N2CCOCC2)C[C@@H]1C1CC1` | 4.949% |
| `Cc1cc(C2CCCN2Cc2nnc(-c3ccco3)o2)on1` (configuration not stated) | 2% |
| `Cc1ccnc(OC[C@@]23CCO[C@@H]2CCN(c2ncc(F)cn2)C3)n1` | -2.873% |
| `CCN(CC)C(=O)c1cc(C2(C)CCN(C(C)=O)CC2)nc(C)n1` | -7.029% |
| `CN(C)S(=O)(=O)N1CCCC(c2cccc(Cc3ccc(Cl)cc3)n2)C1` (configuration not stated) | 12.04% |
| `Cc1cc(NC(=O)NC2CCN(C(C)C)CC2)c2ncccc2c1` | -4.442% |
| `O=C(C1CC(=O)N(c2ccccc2Br)C1)N1CCC2(CC1)OCCO2` (configuration not stated) | -1.033% |
| `CCC(CNc1ncnc2oc(C)nc12)Cc1ccccc1` (configuration not stated) | -5.465% |
| `Cc1noc([C@@H]2C[C@H]3OCC[C@H]3N(CC3CCCC3)C2)n1` | -4.154% |
| `CN(CC(=O)N(C)C1CC1)C1CCN(c2ccc(Cl)cc2)CC1` | -8.094% |
| `c1cc(COC[C@]23COC[C@H]2CN(Cc2ccncc2)C3)ccn1` | 11.52% |
| `Cc1cc(Cc2ccccc2F)cc(C2CCCNC2)n1` (configuration not stated) | -10.12% |
| `Cc1n[nH]cc1CNCc1ccnc(OCC(F)(F)F)c1` | -0.3194% |
| `O=C(O)[C@@H]1CN(C(=O)c2ccc(Cl)cc2)C[C@H]1c1cccc(F)c1` | 2.931% |
| `CC(c1ccccc1Cl)N(C(=O)CSCC(N)=O)C1CC1` (configuration not stated) | -6.228% |
| `NC(=O)c1cc(-n2cc(-c3cccc(C(=O)O)c3)cn2)cs1` | -1.768% |
| `Cc1ccc(F)cc1NC(=O)NCC(C)N1CCOCC1` (configuration not stated) | 11.8% |
| `Cc1nccn1CCCNc1nccnc1C#N` | -83.31% |
| `Cc1nc(C2CCCN2C(=O)COCc2ccccc2)no1` (configuration not stated) | -8.167% |
| `Cc1cnn(CC(=O)N2CCCN(Cc3cnn(C(C)C)c3)CC2)c1` | 7.477% |
| `N#Cc1ccsc1C(=O)N1CCCN(Cc2cscn2)CC1` | -22.07% |
| `CN(C)CCNCCC(c1ccccc1)C1CCOC(C)(C)C1` (configuration not stated) | -9.179% |
| `N#Cc1c(Cl)nsc1NCCN1CCOCC1` | -14.14% |
| `Cc1nn(C)cc1-c1cc(C(F)(F)F)c2c(C)nn(CC(=O)O)c2n1` | 17.45% |
| `O=C(CCNC(=O)c1ccoc1)Nc1cc(F)cc(F)c1` | -3.598% |
| `CCCn1cc(S(=O)(=O)N[C@H]2CN(C(C)=O)C[C@@H]2C2CC2)cn1` | -9.346% |

The last 4 entries again:

With N#Cc1c(Cl)nsc1NCCN1CCOCC1 the screen gave -14.14%.
With Cc1nn(C)cc1-c1cc(C(F)(F)F)c2c(C)nn(CC(=O)O)c2n1 the screen gave 17.45%.
With O=C(CCNC(=O)c1ccoc1)Nc1cc(F)cc(F)c1 the screen gave -3.598%.
With CCCn1cc(S(=O)(=O)N[C@H]2CN(C(C)=O)C[C@@H]2C2CC2)cn1 the screen gave -9.346%.